Results deposited as PubChem BioAssay AID1259308 (NCATS, 2017).
Screen: 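Genes whose loss raises luciferase production in HEK293 cells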 (primary screen). Cells: human HEK293 embryonic kidney cells stably expressing firefly luciferase (HEK-CMV-Luc2-Hygro). Knock-down reagent: single siRNA against human genes, 0.8 pmol siRNA per well. Timing: 72 h. Measured: 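Reporter luminescence and viable-cell signal on separate replicate plates, given as percent of non-targeting control and median/MAD z-scores, plus per-cell luciferase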. Direction: total luciferase, z-score and total luciferase, % of control: higher = more reporter protein produced; luciferase per cell, z-score: higher = more reporter output per viable cell. Call rule: 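An siRNA counts as active if its total luciferase robust z-score exceeds 3; genes with two or more such siRNAs out of three were retested with fresh siRNAs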. Calls: active = raised luciferase; inactive = no rise.
In all, the deposit lists about 59,000 reagents; below is a random part of them. Over the whole deposit, about 1,510 (2.6%) are marked active. 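Calls use total luciferase alone and ignore viability, so some active siRNAs may act by altering cell number.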 Reagents against one gene are numbered here. Not all columns of the deposit are shown.

gene	reagent	total luciferase, z-score	total luciferase, % of control	luciferase per cell, z-score	activity call
FAM13C	1	0.0449	82.8	-0.437	inactive
FAM13C	2	1.37	109	0.938	inactive
FAM13C	3	0.701	95.8	0.0692	inactive
GPR35	1	1.95	121	3.86	inactive
GPR35	2	-1.89	44.2	-2.17	inactive
GPR35	3	-0.502	71.9	0.936	inactive
ERI1	1	-0.796	66.1	-0.122	inactive
ERI1	2	0.0752	83.4	-0.386	inactive
ERI1	3	0.122	84.3	-0.651	inactive
POU3F1	1	0.852	98.8	1.49	inactive
POU3F1	2	0.233	86.5	0.0846	inactive
POU3F1	3	1.33	108	1.2	inactive
DEDD	1	0.297	87.8	0.0841	inactive
DEDD	2	0.192	85.7	0.135	inactive
DEDD	3	-1.8	46.1	-2.77	inactive
TDRD7	1	0.395	89.7	-0.158	inactive
TDRD7	2	-2.4	34.2	-1.27	inactive
TDRD7	3	-0.00255	81.8	-0.435	inactive

The list goes on; the last 5 above are carried over.
gene	reagent	total luciferase, z-score	total luciferase, % of control	luciferase per cell, z-score	activity call
DEDD	2	0.192	85.7	0.135	inactive
DEDD	3	-1.8	46.1	-2.77	inactive
TDRD7	1	0.395	89.7	-0.158	inactive
TDRD7	2	-2.4	34.2	-1.27	inactive
TDRD7	3	-0.00255	81.8	-0.435	inactive
USP13	1	-0.135	79.2	-0.419	inactive
USP13	2	-1.17	58.7	-1.43	inactive
USP13	3	-0.0576	80.7	-0.466	inactive
EPYC	1	-0.942	63.1	-0.907	inactive
EPYC	2	0.468	91.2	-0.0164	inactive
EPYC	3	0.207	86	0.173	inactive
ANHX	1	0.478	91.4	0.811	inactive
ANHX	2	0.544	92.7	0.982	inactive
ANHX	3	-0.354	74.8	-0.532	inactive
BAP1	1	-0.749	67	-0.00903	inactive
BAP1	2	1.65	115	0.756	inactive
BAP1	3	1.02	102	2.69	inactive
ARID3B	1	1.68	115	0.723	inactive
ARID3B	2	-0.222	77.5	-0.0707	inactive
ARID3B	3	1.89	120	1.61	inactive
NMD3	1	-1.22	57.7	-1.77	inactive
NMD3	2	-0.168	78.6	0.081	inactive
NMD3	3	-0.183	78.2	-0.792	inactive
HDAC4	1	-1.36	54.9	-1.29	inactive
HDAC4	2	0.866	99.1	0.798	inactive
HDAC4	3	-2.19	38.2	-2.31	inactive
HDAC4	4	-0.33	75.3	-1	inactive
HDAC4	5	-0.38	74.3	-0.681	inactive
HDAC4	6	-0.329	75.3	-0.402	inactive
